# Paper doi:10.1101/2024.01.30.577955
# Protein sequences, listed by entry. Tags and fused reporters are not part of them. Lines headed by an entry give the natural chain unless they say otherwise; changes in a name come on top.
# UniProt Q96N11, whole entry: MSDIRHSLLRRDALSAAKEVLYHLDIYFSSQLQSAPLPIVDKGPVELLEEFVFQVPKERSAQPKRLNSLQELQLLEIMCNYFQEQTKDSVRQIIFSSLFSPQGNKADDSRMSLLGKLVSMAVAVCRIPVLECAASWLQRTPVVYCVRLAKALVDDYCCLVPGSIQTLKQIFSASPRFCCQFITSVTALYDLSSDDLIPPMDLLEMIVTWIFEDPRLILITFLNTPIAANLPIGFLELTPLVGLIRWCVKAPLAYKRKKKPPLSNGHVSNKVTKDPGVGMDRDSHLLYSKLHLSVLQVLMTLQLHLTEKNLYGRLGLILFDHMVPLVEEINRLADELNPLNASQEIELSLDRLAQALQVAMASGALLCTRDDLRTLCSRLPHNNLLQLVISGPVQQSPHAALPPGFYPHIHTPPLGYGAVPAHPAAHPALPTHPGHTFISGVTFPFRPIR
# Tests used:
# Assay in all cases: affinity purification with mass spectrometry
# 3xHA-INTS15 (WT) = 3xHA-INTS15 (WT) (UniProt Q96N11)
# 3xHA-INTS15 (L69A/L72A) = 3xHA-INTS15 (L69A/L72A) (UniProt Q96N11)
# [1] = target: 3xHA-INTS15 (M120A/V124A) (UniProt Q96N11)
Substance,binding (3xHA-INTS15 (WT)),binding (3xHA-INTS15 (L69A/L72A)),binding [1]
INTS2 (endogenous) (from UniProt Q9H0H0 1-1196),binds,–,–
INTS5 (endogenous) (from UniProt Q6P9B9 1-1019),binds,no binding,no binding
INTS6 (endogenous) (from UniProt Q9UL03 1-887),binds,–,–
INTS10 (endogenous) (from UniProt Q9NVR2 1-710),binds,binds,binds

# Second part, the substance after the results:
binding (3xHA-INTS15 (WT)),binding (3xHA-INTS15 (L69A/L72A)),binding [1],Substance
binds,–,–,INTS7 (endogenous) (from UniProt Q9NVH2 1-962)
binds,no binding,no binding,INTS8 (endogenous) (from UniProt Q75QN2 1-995)

# These are yes or no findings as the source states them, for the method shown. Binding seen in cells or lysates may run through a third protein. Here binding means that the protein was enriched with, or labelled near, the bait; the list need not be complete. For part of these data: A no says only that the protein was not detected with the bait.
